In PubChem BioAssay AID256 (DTP/NCI, 2004):
The list is a part of this screen's results and no random one: it gathers tests that were run many times, whatever their T/C, doses with no T/C, and many T/C values between a quarter and a half above the control. Other doses and runs of a compound stand elsewhere. T/C is the treated group as % of the vehicle group. Some entries give survivors of the animals treated and no T/C: the source holds a T/C of zero for them, seemingly a mark for toxic or unscored doses. Some doses without a T/C left all or most animals alive at the check, yet need not have been tolerated: survival well below the control is almost never listed, so the zero probably covers shortened survival too. Survivors were counted at the toxicity check, usually on the fifth day, unless a day is given; later deaths do not show. Schedules are NCI's codes, read here as Q, the interval in days (D) or hours (H), X, the number of doses. Some entries were tested several times; their values stand side by side, smallest first. For survival time, the PubChem record calls one and a half times the control and up active, and a quarter to a half above the control has no call in these data; cut-offs in other NCI protocols can differ.

Tested on: CD2F1 mice, L1210 leukemia ip, survival T/C
Assay: NCI In Vivo Anticancer Drug Screen. Data for tumor model L1210 Leukemia (intraperitoneal) in CD2F1 (CDF1) mice
Settings: higher T/C = longer survival
Procedure, shortened: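 Transplantable tumor in mice; compound-treated vs vehicle-treated groups. Read-out = treated/control ratio of the measured endpoint.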

[1] = T/C endpoint: mean survival time, dose: 200.0 mg/kg/injection, schedule: Q01DX009 (ip), vehicle: saline with Tween-80
[2] = T/C endpoint: mean survival time, dose: 400.0 mg/kg/injection, schedule: Q01DX009 (ip), vehicle: saline with Tween-80
[3] = T/C endpoint: mean survival time, dose: 100.0 mg/kg/injection, schedule: Q01DX009 (ip), vehicle: saline
[4] = T/C endpoint: mean survival time, dose: 200.0 mg/kg/injection, schedule: Q01DX009 (ip), vehicle: saline
[5] = T/C endpoint: mean survival time, dose: 400.0 mg/kg/injection, schedule: Q04DX003 (ip), vehicle: saline with Tween-80
[6] = T/C endpoint: mean survival time, dose: 400.0 mg/kg/injection, schedule: Q04DX003 (ip), vehicle: saline

## O=S(=O)(O)O.[NH-]C1CCCCCC1[NH-].[Pt+2] (stereo unspecified)
T/C endpoint: mean survival time, dose: 0.78 mg/kg/injection, schedule: Q01DX001 (ip), vehicle: dextrose
  T/C: 129 % of control
T/C endpoint: mean survival time, dose: 0.78 mg/kg/injection, schedule: Q04DX003 (ip), vehicle: dextrose
  T/C: 127 and 131 % of control
T/C endpoint: mean survival time, dose: 1.56 mg/kg/injection, schedule: Q01DX001 (ip), vehicle: dextrose
  T/C: 142 % of control
T/C endpoint: mean survival time, dose: 1.56 mg/kg/injection, schedule: Q04DX003 (ip), vehicle: dextrose
  T/C: 137 % of control
T/C endpoint: mean survival time, dose: 6.25 mg/kg/injection, schedule: Q04DX003 (ip), vehicle: dextrose
  T/C: 125 % of control
T/C endpoint: mean survival time, dose: 12.5 mg/kg/injection, schedule: Q01DX001 (ip), vehicle: dextrose
  survivor count: 1 of 6
T/C endpoint: mean survival time, dose: 12.5 mg/kg/injection, schedule: Q04DX003 (ip), vehicle: dextrose
  survivor count: 3 of 6 and 6 of 6
T/C endpoint: mean survival time, dose: 25.0 mg/kg/injection, schedule: Q01DX001 (ip), vehicle: dextrose
  survivor count: 0 of 6 and 1 of 6
T/C endpoint: mean survival time, dose: 25.0 mg/kg/injection, schedule: Q04DX003 (ip), vehicle: dextrose
  survivor count: 0 of 6 and 4 of 6

## Oc1ccccc1C=NCCN=Cc1ccccc1O.[CH3][Sn]([CH3])([Cl])[Cl]
T/C endpoint: mean survival time, dose: 100.0 mg/kg/injection, schedule: Q01DX009 (ip), vehicle: saline with Tween-80
  survivor count: 2 of 6
[1]
  survivor count: 0 of 6
[2]
  survivor count: 0 of 6

## COC(=O)c1ccccc1Cn1c(C)cnc1C
[3]
  survivor count: 0 of 3
[4]
  survivor count: 0 of 3

## S=c1[nH]nc2n1NC(c1ccoc1)=NN2
[5]
  survivor count: 3 of 6

## O=C(O)c1ccccc1C(=O)c1cccc2ccccc12
[5]
  survivor count: 1 of 6

## CN1c2c(nc(N)[nH]c2=O)NCC1CCNc1ccc(C(=O)NC(CCC(=O)O)C(=O)O)cc1 (stereo unspecified)
T/C endpoint: mean survival time, dose: 100.0 mg/kg/injection, schedule: Q01DX009 (ip), vehicle: Klucel (hydroxypropylcellulose) (HPC)
  T/C: 132 % of control
T/C endpoint: mean survival time, dose: 200.0 mg/kg/injection, schedule: Q01DX009 (ip), vehicle: Klucel (hydroxypropylcellulose) (HPC)
  T/C: 132 % of control
T/C endpoint: mean survival time, dose: 300.0 mg/kg/injection, schedule: Q01DX009 (ip), vehicle: sodium bicarbonate
  T/C: 133 % of control
T/C endpoint: mean survival time, dose: 400.0 mg/kg/injection, schedule: Q01DX009 (ip), vehicle: Klucel (hydroxypropylcellulose) (HPC)
  T/C: 139 % of control
T/C endpoint: mean survival time, dose: 440.0 mg/kg/injection, schedule: Q01DX009 (ip), vehicle: sodium bicarbonate
  T/C: 132 % of control
T/C endpoint: mean survival time, dose: 500.0 mg/kg/injection, schedule: Q01DX009 (ip), vehicle: sodium bicarbonate
  T/C: 140 % of control
T/C endpoint: mean survival time, dose: 660.0 mg/kg/injection, schedule: Q01DX009 (ip), vehicle: sodium bicarbonate
  T/C: 138 % of control
T/C endpoint: mean survival time, dose: 750.0 mg/kg/injection, schedule: Q01DX009 (ip), vehicle: sodium bicarbonate
  T/C: 149 % of control
T/C endpoint: mean survival time, dose: 800.0 mg/kg/injection, schedule: Q01DX009 (ip), vehicle: Klucel (hydroxypropylcellulose) (HPC)
  T/C: 126 % of control
T/C endpoint: mean survival time, dose: 1000.0 mg/kg/injection, schedule: Q01DX009 (ip), vehicle: sodium bicarbonate, evaluated on day 30
  T/C: 147 % of control
T/C endpoint: mean survival time, dose: 1000.0 mg/kg/injection, schedule: Q01DX009 (ip), vehicle: sodium bicarbonate, evaluated on day 45
  T/C: 138 % of control

## CCCCCCC#CC(=O)OC
[2]
  survivor count: 2 of 6

## COc1cc(/C=N\NC(=O)CC#N)cc(OC)c1OC
[5]
  survivor count: 2 of 6

## O=C(O)/C=C/SCCC(=O)O
[5]
  survivor count: 0 of 6 and 2 of 6

## [NH-]c1ccccc1C(=O)O.[NH-]c1ccccc1C(=O)O.[Ni+2]
[5]
  survivor count: 5 of 6

## Cc1ccc(C2=C(O)C(=O)C(c3ccc(C)cc3)C2=O)cc1 (stereo unspecified)
[5]
  survivor count: 0 of 3

## CN(C)C(=S)NNC(=O)c1ccc(Cl)cc1
T/C endpoint: mean survival time, dose: 50.0 mg/kg/injection, schedule: Q01DX001 (ip), vehicle: saline with Tween-80
  survivor count: 2 of 6
T/C endpoint: mean survival time, dose: 100.0 mg/kg/injection, schedule: Q01DX001 (ip), vehicle: saline with Tween-80
  survivor count: 0 of 6

## COc1ccc(C(=O)/C=N/O)cc1
T/C endpoint: mean survival time, dose: 200.0 mg/kg/injection, schedule: Q04DX003 (ip), vehicle: saline with Tween-80
  survivor count: 2 of 6
[5]
  survivor count: 0 of 6

## CCCCCCCCCCCCCCC/C([O-])=N/[N+](C)(C)CC(C)O (stereo unspecified)
T/C endpoint: mean survival time, dose: 200.0 mg/kg/injection, schedule: Q01DX001 (ip), vehicle: saline
  survivor count: 10 of 10
[1]
  survivor count: 2 of 3
T/C endpoint: mean survival time, dose: 400.0 mg/kg/injection, schedule: Q01DX001 (ip), vehicle: saline
  survivor count: 8 of 10
T/C endpoint: mean survival time, dose: 800.0 mg/kg/injection, schedule: Q01DX001 (ip), vehicle: saline
  survivor count: 3 of 6 and 7 of 10

## COc1ccc(CCNCCc2ccc(OC)c(OC)c2)cc1OC
T/C endpoint: mean survival time, dose: 200.0 mg/kg/injection, schedule: Q01DX009 (ip), vehicle: water
  survivor count: 0 of 6

## O=[N+]([O-])/C=C/c1ccccc1
T/C endpoint: mean survival time, dose: 40.0 mg/kg/injection, schedule: Q01DX009 (ip), vehicle: saline with Tween-80
  survivor count: 0 of 6
T/C endpoint: mean survival time, dose: 80.0 mg/kg/injection, schedule: Q01DX009 (ip), vehicle: saline with Tween-80
  survivor count: 2 of 6

## N#CC(C#N)=Cc1cccc(CC(O)(C(F)(F)F)C(F)(F)F)n1
[5]
  survivor count: 0 of 6

## CC(C)=CCNc1ncnc2c1ncn2C1OC(COP(=O)(O)O)C(O)C1O (stereo unspecified)
T/C endpoint: mean survival time, dose: 400.0 mg/kg/injection, schedule: Q01DX005 (ip), vehicle: water
  survivor count: 0 of 6

## COc1cc(/C=N\N=C\c2ccc(O)c(OC)c2)ccc1O
[2]
  survivor count: 5 of 6

## O=C1C(=O)c2ccccc2C(O)=C1CCCc1ccc(OCc2ccccc2)cc1
T/C endpoint: mean survival time, dose: 50.0 mg/kg/injection, schedule: Q01DX009 (ip), vehicle: saline
  survivor count: 6 of 6
[3]
  survivor count: 4 of 6
[4]
  survivor count: 5 of 6
[6]
  survivor count: 6 of 6

## C[Si](C)(C)n1nnn(-c2ccccc2)c1=O
[2]
  survivor count: 3 of 6

## COc1ccc(C#N)c([N+](=O)[O-])c1
[5]
  survivor count: 3 of 6

## Nc1nc(SSc2nc(N)nc3c2ncn3C2OC(CO)CC2O)c2ncn(C3OC(CO)CC3O)c2n1 (stereo unspecified)
T/C endpoint: mean survival time, dose: 75.0 mg/kg/injection, schedule: Q01DX001 (ip), vehicle: saline
  T/C: 133 % of control
T/C endpoint: mean survival time, dose: 150.0 mg/kg/injection, schedule: Q01DX001 (ip), vehicle: saline
  T/C: 131 % of control

## COc1nc(N)nc2c1nnn2C1OC(CO)C(O)C1O (stereo unspecified)
T/C endpoint: mean survival time, dose: 12.5 mg/kg/injection, schedule: Q01DX009 (ip), vehicle: Klucel (hydroxypropylcellulose) (HPC)
  T/C: 141 % of control
T/C endpoint: mean survival time, dose: 25.0 mg/kg/injection, schedule: Q01DX009 (ip), vehicle: Klucel (hydroxypropylcellulose) (HPC)
  T/C: 141 % of control

## Cc1cccc[n+]1C
T/C endpoint: mean survival time, dose: 100.0 mg/kg/injection, schedule: Q04DX003 (ip), vehicle: saline
  survivor count: 6 of 6
T/C endpoint: mean survival time, dose: 200.0 mg/kg/injection, schedule: Q04DX003 (ip), vehicle: saline
  survivor count: 3 of 6
[6]
  survivor count: 0 of 6

## O=C(Nc1ccc(C2=NCCN2)cc1)c1ccc(C(=O)Nc2ccc(C3=NCCN3)cc2)cc1
T/C endpoint: mean survival time, dose: 12.0 mg/kg/injection, schedule: Q01DX008 (iv), vehicle: water
  T/C: 144 % of control
T/C endpoint: mean survival time, dose: 18.0 mg/kg/injection, schedule: Q01DX008 (iv), vehicle: water
  T/C: 130 % of control
T/C endpoint: mean survival time, dose: 27.0 mg/kg/injection, schedule: Q01DX008 (iv), vehicle: water
  T/C: 146 % of control
T/C endpoint: mean survival time, dose: 50.0 mg/kg/injection, schedule: Q01DX007 (ip), vehicle: water
  T/C: 138 % of control
T/C endpoint: mean survival time, dose: 50.0 mg/kg/injection, schedule: Q01DX009 (ip), vehicle: water
  T/C: 138 % of control
T/C endpoint: mean survival time, dose: 50.0 mg/kg/injection, schedule: Q03DX003 (ip), vehicle: water
  T/C: 126 % of control
T/C endpoint: mean survival time, dose: 100.0 mg/kg/injection, schedule: Q01DX009 (ip), vehicle: water
  T/C: 148 % of control
T/C endpoint: mean survival time, dose: 100.0 mg/kg/injection, schedule: Q03DX003 (ip), vehicle: water
  T/C: 129 % of control
T/C endpoint: mean survival time, dose: 200.0 mg/kg/injection, schedule: Q03DX003 (ip), vehicle: water
  T/C: 140 % of control
T/C endpoint: mean survival time, dose: 200.0 mg/kg/injection, schedule: Q04DX003 (ip), vehicle: water
  T/C: 137 % of control

## O=C1c2ccccc2C(Cl)(c2ccc(Cl)cc2)c2ccc(Cl)cc21 (stereo unspecified)
T/C endpoint: median survival time, dose: 200.0 mg/kg/injection, schedule: Q01DX009 (ip), vehicle: saline with Tween-80
  survivor count: 4 of 6
T/C endpoint: median survival time, dose: 400.0 mg/kg/injection, schedule: Q01DX009 (ip), vehicle: saline with Tween-80
  survivor count: 2 of 6
